Laboratory results published in PubChem BioAssay AID256 (DTP/NCI, 2004).
The list is a part of this screen's results and no random one: it is rich in T/C values a quarter to a half above the control, in often repeated tests (any T/C) and in doses without a T/C. Further doses and runs are listed elsewhere. T/C is the treated group as % of the vehicle group. Some entries give survivors of the animals treated and no T/C: the source holds a T/C of zero for them, seemingly a mark for toxic or unscored doses. Some survivor counts are full or nearly so, which does not show that the dose was tolerated: the source hardly ever lists a survival T/C far under the control, and the zero likely stands for such cases as well. Counts of survivors are from the toxicity check (mostly the fifth day) where no day follows; animals may have died later. Schedule codes are those of the source, taken here to give the interval after Q, in days (D) or hours (H), and the number of doses after X. For survival time, this PubChem deposit counts one and a half times the control or more as active, and values a quarter to a half above the control carry no call in these data; other NCI protocols may use other cut-offs. Some T/C values carry the count of animals alive at the toxicity check (mostly the fifth day); without a count, all were alive then. Some entries hold several experiments; the values are given in rising order. Counts like (3×) stand for listed records that agree.

Tested on: CD2F1 mice, L1210 leukemia ip, survival T/C
Assay: NCI In Vivo Anticancer Drug Screen. Data for tumor model L1210 Leukemia (intraperitoneal) in CD2F1 (CDF1) mice
Conditions: higher T/C = longer survival
Procedure, shortened: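 Mice carrying a transplanted tumor received test compound or vehicle alone. The value is the measurement in the treated group divided by that in the vehicle-treated control group.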

[1] = T/C endpoint: mean survival time, dose: 400.0 mg/kg/injection, schedule: Q04DX002 (ip), vehicle: saline with Tween-80

## COc1cc2c[n+](C)c3c4cc5c(cc4ccc3c2cc1OC)OCO5
T/C endpoint: mean survival time, dose: 1.25 mg/kg/injection, schedule: Q01DX009 (ip), vehicle: water
  T/C: 100, 102, 110, 113 % of control
T/C endpoint: mean survival time, dose: 2.5 mg/kg/injection, schedule: Q01DX009 (ip), vehicle: water
  T/C: 110, 111, 112, 122, 125 % of control
T/C endpoint: mean survival time, dose: 5.0 mg/kg/injection, schedule: Q01DX009 (ip), vehicle: water
  T/C: 110, 113 (2×), 118, 121, 125 % of control
T/C endpoint: mean survival time, dose: 10.0 mg/kg/injection, schedule: Q01DX009 (ip), vehicle: water
  T/C: 115 (2×), 121, 125, 126, 127 % of control
T/C endpoint: mean survival time, dose: 20.0 mg/kg/injection, schedule: Q01DX009 (ip), vehicle: water
  T/C: 115, 115 [5 of 6 alive], 119, 130 [5 of 6 alive], 131, 137 % of control
T/C endpoint: mean survival time, dose: 40.0 mg/kg/injection, schedule: Q01DX009 (ip), vehicle: water
  T/C: 141 % of control
T/C endpoint: mean survival time, dose: 100.0 mg/kg/injection, schedule: Q01DX009 (ip), vehicle: saline with Tween-80
  survivor count: 4 of 6

## COc1ccccc1NC(=O)NCCN(C)c1ccccc1
[1]
  survivor count: 3 of 3

## O=c1cc[nH]cc1[N+](=O)[O-]
T/C endpoint: mean survival time, dose: 400.0 mg/kg/injection, schedule: Q04DX003 (ip), vehicle: saline sonified
  survivor count: 3 of 6

## CCCCCC(C)(C)N=[P+]([O-])NC(C)(C)CCCCC (stereo unspecified)
T/C endpoint: mean survival time, dose: 200.0 mg/kg/injection, schedule: Q04DX002 (ip), vehicle: saline with Tween-80
  survivor count: 0 of 3
[1]
  survivor count: 0 of 3

## Nc1ccn([C@@H]2C=C(CO)[C@@H](O)[C@H]2O)c(=O)n1
T/C endpoint: median survival time, dose: 0.25 mg/kg/injection, schedule: Q01DX009 (ip), vehicle: saline
  T/C: 126 % of control
T/C endpoint: median survival time, dose: 0.5 mg/kg/injection, schedule: Q01DX009 (ip), vehicle: saline
  T/C: 149 % of control [5 of 6 alive]
T/C endpoint: median survival time, dose: 1.0 mg/kg/injection, schedule: Q01DX009 (ip), vehicle: saline, evaluated on day 30
  T/C: 224, 276, 301 % of control
T/C endpoint: median survival time, dose: 1.0 mg/kg/injection, schedule: Q01DX009 (ip), vehicle: saline, evaluated on day 45
  T/C: 312 % of control
T/C endpoint: median survival time, dose: 1.0 mg/kg/injection, schedule: Q01DX009 (ip), vehicle: saline, evaluated on day 60
  T/C: 216 % of control
T/C endpoint: median survival time, dose: 1.0 mg/kg/injection, schedule: Q01DX009 (oral), vehicle: saline
  T/C: 149 % of control
T/C endpoint: median survival time, dose: 1.0 mg/kg/injection, schedule: Q04DX003 (ip), vehicle: saline
  T/C: 126 % of control
T/C endpoint: median survival time, dose: 1.5 mg/kg/injection, schedule: Q01DX009 (ip), vehicle: saline, evaluated on day 30
  T/C: 240 and 269 % of control
T/C endpoint: median survival time, dose: 1.5 mg/kg/injection, schedule: Q01DX009 (ip), vehicle: saline, evaluated on day 45
  T/C: 253 % of control
T/C endpoint: median survival time, dose: 1.5 mg/kg/injection, schedule: Q01DX009 (ip), vehicle: saline, evaluated on day 60
  T/C: 271 % of control
T/C endpoint: median survival time, dose: 2.0 mg/kg/injection, schedule: Q01DX009 (ip), vehicle: saline
  T/C: 146 % of control
T/C endpoint: median survival time, dose: 2.25 mg/kg/injection, schedule: Q01DX009 (ip), vehicle: saline
  T/C: 137 % of control
T/C endpoint: median survival time, dose: 16.0 mg/kg/injection, schedule: Q04DX003 (ip), vehicle: saline
  T/C: 146 % of control
T/C endpoint: median survival time, dose: 125.0 micrograms/kg/injection, schedule: Q03HX024 (ip), vehicle: saline
  T/C: 138 % of control
T/C endpoint: median survival time, dose: 1000.0 micrograms/kg/injection, schedule: Q03HX024 (ip), vehicle: saline
  T/C: 142 % of control

## CCC(C)(O)c1cnc(CC(C)C)c(=O)n1O (stereo unspecified)
T/C endpoint: mean survival time, dose: 300.0 mg/kg/injection, schedule: Q01DX001 (ip), vehicle: saline
  survivor count: 0 of 6

## NC(N)=NC(N)=Nc1ccc(Cl)cc1
T/C endpoint: mean survival time, dose: 400.0 mg/kg/injection, schedule: Q01DX009 (ip), vehicle: saline with Tween-80
  survivor count: 0 of 6

## C[n+]1ccc(/C=C\c2ccc(N(CCCl)CCCl)cc2)c2ccccc21
T/C endpoint: mean survival time, dose: 50.0 mg/kg/injection, schedule: Q01DX009 (ip), vehicle: Klucel (hydroxypropylcellulose) (HPC)
  survivor count: 0 of 3
T/C endpoint: mean survival time, dose: 100.0 mg/kg/injection, schedule: Q01DX009 (ip), vehicle: Klucel (hydroxypropylcellulose) (HPC)
  survivor count: 0 of 3
T/C endpoint: mean survival time, dose: 200.0 mg/kg/injection, schedule: Q01DX009 (ip), vehicle: Klucel (hydroxypropylcellulose) (HPC)
  survivor count: 0 of 3

## COc1ccc2c(c1)c(C#N)cc[n+]2C
T/C endpoint: mean survival time, dose: 25.0 mg/kg/injection, schedule: Q01DX009 (ip), vehicle: saline with Tween-80
  survivor count: 1 of 6
T/C endpoint: mean survival time, dose: 50.0 mg/kg/injection, schedule: Q04DX003 (ip), vehicle: saline with Tween-80
  survivor count: 4 of 6
T/C endpoint: mean survival time, dose: 100.0 mg/kg/injection, schedule: Q04DX003 (ip), vehicle: saline with Tween-80
  survivor count: 0 of 6
T/C endpoint: mean survival time, dose: 200.0 mg/kg/injection, schedule: Q04DX003 (ip), vehicle: saline with Tween-80
  survivor count: 0 of 6
T/C endpoint: mean survival time, dose: 400.0 mg/kg/injection, schedule: Q04DX003 (ip), vehicle: saline with Tween-80
  survivor count: 0 of 6
